Source: the supplement of paper PMC5355238
Structures can show the parent of a compound that is named as a salt. This is one part of the list. Repeats are few or missing, and single values can be far off.

test system: Reh; assay: S-phase gammaH2AX median, Z-score vs plate median (drug alone); higher = more S-phase DNA damage; details: MK1775 concentration 0 nM; 10 µM; 4 h

SMILES | S-phase gammaH2AX median (Z-score)
OCCn1cc(-c2ccc3c(c2)CC/C3=N\O)c(-c2ccncc2)n1 | 0.138
Cc1ccc(-c2cc(C(F)(F)F)nn2-c2ccc(S(N)(=O)=O)cc2)cc1 [Celecoxib] | -0.00812
CC(C)[N+]1(C)[C@@H]2CC[C@H]1C[C@@H](OC(=O)C(CO)c1ccccc1)C2 (stereo partly specified) [Ipratropium bromide] | 0.0283
CC(C)(C)c1cc(NC(=O)Nc2ccc(-c3cn4c(n3)sc3cc(OCCN5CCOCC5)ccc34)cc2)no1 [Quizartinib (AC220)] | 0.0599
C=C/C(C)=C/[C@@]1(C)SC(=O)C(C)=C1O [Thiolactomycin] | -0.0071
COc1ccc2c(c1)c(CC(=O)O)c(C)n2C(=O)c1ccccc1 [1-benzoyl-5-methoxy-2-methylindole-3-acetic acid] | 0.0641
O=C(/C=C/c1cccc(S(=O)(=O)Nc2ccccc2)c1)NO [Belinostat (PXD101)] | 0.177
COc1ccc2c3n(c(=NC(=O)c4cccnc4)nc2c1OC)CCN3 | -0.0932
CCN(CC)CCOCCOC(=O)C1(c2ccccc2)CCCC1 [Carbetapentane citrate] | -0.0155
Cc1cc(C(C)(C)C)cc(C)c1CC1=NCCN1 [Xylometazoline hydrochloride] | 0.147
O=c1[nH]ccc2c(O)cccc12 [1,5-Isoquinolinediol] | 0.142
O=C(c1cc(O)c(O)c([N+](=O)[O-])c1)c1ccccc1F | 0.487
COc1cc2nc(N3CCN(C(=O)C4COc5ccccc5O4)CC3)nc(N)c2cc1OC (stereo unspecified) [Doxazosin mesylate] | -0.239
CNC(=O)c1ccc(N2C(=S)N(c3ccc(C#N)c(C(F)(F)F)c3)C(=O)C2(C)C)cc1F [MDV3100 (Enzalutamide)] | 0.0947
N[C@H]1CONC1=O [L-Cycloserine] | -0.00971
CCCOc1ccccc1-c1nc2[nH]nnc2c(=O)[nH]1 [Zaprinast] | -0.24
CC#C[C@]1(O)CC[C@H]2[C@@H]3CCC4=CC(=O)CCC4=C3[C@@H](c3ccc(N(C)C)cc3)C[C@@]21C [Mifepristone] | 0.166
CC#C[C@]1(O)CC[C@H]2[C@@H]3CCC4=CC(=O)CCC4=C3[C@@H](c3ccc(N(C)C)cc3)C[C@@]21C [Mifepristone (Mifeprex)] | 0.279
CC[C@@H]1C(=O)N(C)c2cnc(Nc3ccc(C(=O)N[C@H]4CC[C@H](N5CCN(CC6CC6)CC5)CC4)cc3OC)nc2N1C(C)C [BI6727 (Volasertib)] | -0.152
COc1ccc(Cl)cc1C(=O)NCCc1ccc(S(=O)(=O)NC(=O)NC2CCCCC2)cc1 [Glibenclamide] | 0.101
O=c1ccn([C@@H]2O[C@H](COP(=O)(O)OP(=O)(O)O)[C@@H](O)[C@H]2O)c(=O)[nH]1 [Uridine 5'-diphosphate sodium] | 0.133
CC(C(O)c1ccc(O)cc1)N1CCC(Cc2ccccc2)CC1 (stereo unspecified) [Ifenprodil tartrate] | 0.126
Cc1ccc(OCC(O)C(C)NC(C)C)c2c1CCC2 (stereo unspecified) [ICI 118,551 hydrochloride] | -0.189
O=C(O)C1=CC(=C(c2ccc(O)c(C(=O)O)c2)c2ccc(O)c(C(=O)O)c2)C=CC1=O [Aurintricarboxylic acid] | -0.0641
NC(C(=O)O)C(O)C(=O)O (racemic) [DL-threo-beta-hydroxyaspartic acid] | 0.0693
Cn1cc(C(F)(F)F)nc1-c1ccc(OCC(O)CNCCOc2ccc(O)c(C(N)=O)c2)cc1 (stereo unspecified) | -0.0408

Three entries from above, in markdown.

| SMILES | S-phase gammaH2AX median (Z-score) |
| --- | --- |
| COc1ccc(Cl)cc1C(=O)NCCc1ccc(S(=O)(=O)NC(=O)NC2CCCCC2)cc1 [Glibenclamide] | 0.101 |
| O=c1ccn([C@@H]2O[C@H](COP(=O)(O)OP(=O)(O)O)[C@@H](O)[C@H]2O)c(=O)[nH]1 [Uridine 5'-diphosphate sodium] | 0.133 |
| CC(C(O)c1ccc(O)cc1)N1CCC(Cc2ccccc2)CC1 (stereo unspecified) [Ifenprodil tartrate] | 0.126 |

Going on with the list:

SMILES | S-phase gammaH2AX median (Z-score)
COc1nc(C)cnc1NS(=O)(=O)c1cccnc1-c1ccc(-c2nnco2)cc1 [Zibotentan (ZD4054)] | 0.0329
CN1[C@@H]2CC[C@H]1C[C@@H](OC(c1ccccc1)c1ccccc1)C2 [Benztropine mesylate] | 0.00194
C[N+](C)(C)CCC(=O)c1cccc2ccccc12 [2-(alpha-Naphthoyl)ethyltrimethylammonium iodide] | -0.0781
CC1(C)C(=O)N(CCN2CCC(C(=O)c3ccc(F)cc3)CC2)c2ccccc21 [LY-310,762 hydrochloride] | -0.132
NC(=O)Nc1sc(-c2ccc(F)cc2)cc1C(N)=O | -0.053
CCCCC1C(=O)N(c2ccccc2)N(c2ccccc2)C1=O [Phenylbutazone] | 0.17
N=C(N)SCCN [2-(2-Aminoethyl)isothiourea dihydrobromide] | -0.0796
COc1cc2ncnc(Nc3ccc(F)c(Cl)c3)c2cc1NC(=O)/C=C/CN1CCCCC1 | 0.11
Nc1nccc(-c2ccc3noc(-c4ccc(Cl)cc4)c3c2)n1 [PIM-1 Inhibitor 2] | 0.191
Cc1ccc(C(=O)N(CCCN)[C@@H](c2nc3cc(Cl)ccc3c(=O)n2Cc2ccccc2)C(C)C)cc1 | -0.136
N=C(N)N1CCc2ccccc2C1 [Debrisoquin sulfate] | 0.0189
O=C(O)Cc1ccc(O)c(O)c1 [3,4-Dihydroxyphenylacetic acid] | -0.0882
C[C@@H](Oc1cc(-c2cnn(C3CCNCC3)c2)cnc1N)c1c(Cl)ccc(F)c1Cl | -0.12
Nc1c(S(=O)(=O)O)cc(Nc2ccc(Nc3nc(Cl)nc(Nc4cccc(S(=O)(=O)O)c4)n3)c(S(=O)(=O)O)c2)c2c1C(=O)c1ccccc1C2=O [Reactive Blue 2] | 0.474
CC(C)C1C2CCC(C2)C1N (stereo unspecified) | 0.00388
CNCC[C@@H](Oc1ccccc1C)c1ccccc1 [Tomoxetine] | 0.621
c1ccc(CN2CCC3(CCCc4ccccc43)CC2)cc1 [L-687,384 hydrochloride] | -0.0993
Cc1cccc(C)c1NC(=O)C[N+](C)(C)C [Lidocaine N-methyl hydrochloride] | 0.0819
O=C(OCCN1CCCCC1)c1c[nH]c2ccccc12 | 0.0472
CCCn1c(=O)c2[nH]c(-c3ccc(OCC(=O)NCCN)cc3)nc2n(CCC)c1=O [Xanthine amine congener] | -0.908
Nc1ccccc1NC(=O)c1ccc(CNc2nccc(-c3cccnc3)n2)cc1 [Mocetinostat (MGCD0103)] | 0.153
C[C@H](CCC(=O)NCCS(=O)(=O)O)[C@H]1CC[C@H]2[C@@H]3[C@H](O)C[C@@H]4C[C@H](O)CC[C@]4(C)[C@H]3C[C@H](O)[C@]12C [Sodium Taurocholate] | 0.0408
CC1=C(C(=O)O)N2C(=O)[C@@H](NC(=O)[C@H](N)c3ccccc3)[C@H]2SC1 [Cephalexin hydrate] | 0.113
CCCc1c(OCCCOc2ccc(OCC(=O)O)cc2)ccc(C(C)=O)c1O | -0.173
CCSC(N)=Nc1ccc(C(F)(F)F)cc1 [TFPI hydrochloride] | -0.327
O=c1c2ccccc2[nH]c(=S)n1CCN1CCC(=C(c2ccc(F)cc2)c2ccc(F)cc2)CC1 [Diacylglycerol Kinase Inhibitor II] | 0.0535

SMILES | S-phase gammaH2AX median (Z-score)
CC[C@@H]1Cc2cc(O)ccc2C2=C1c1ccc(O)cc1C[C@H]2CC [(R,R)-cis-Diethyl tetrahydro-2,8-chrysenediol] | -0.104
Oc1cc(O)cc(/C=C/c2ccc(O)c(O)c2)c1 [Piceatannol] | 0.0497
Nc1nnc(-c2cccc(Cl)c2Cl)c(N)n1 [Lamotrigine] | -0.11
CC[C@@]1(O)C(=O)OCc2c1cc1n(c2=O)Cc2cc3c(CN(C)C)c(O)ccc3nc2-1 [Topotecan HCl] | 6.35
O=C1c2ccccc2-c2nc3nonc3nc21 | 1.64
CC(=O)O[C@]1(C(C)=O)CC[C@H]2[C@@H]3C=C(C)C4=CC(=O)CC[C@]4(C)[C@H]3CC[C@@]21C [Megestrol Acetate] | 0.0584
Cc1cccc(C2CN(C)CCc3c2cc(O)c(O)c3Cl)c1 (stereo unspecified) | 0.207
Cc1nc(N=Nc2cc(S(=O)(=O)O)c3cc([N+](=O)[O-])cc(S(=O)(=O)O)c3c2)c(COP(=O)(O)O)c(C=O)c1O [PPNDS tetrasodium] | -0.0071
O=c1[nH]c2cc(Cl)c(Cl)cc2[nH]c1=O [6,7-Dichloroquinoxaline-2,3-dione] | 0.0661
O=C1OC(=O)[C@H]2[C@@H]1[C@@H]1CC[C@H]2O1 [Norcantharidin] | -0.0118
Cc1nnc(SCC2=C(C(=O)O)N3C(=O)[C@@H](NC(=O)Cn4cnnn4)[C@H]3SC2)s1 [Cefazolin sodium] | 0.0583
Cn1cncc1[C@@](N)(c1ccc(Cl)cc1)c1ccc2c(c1)c(-c1cccc(Cl)c1)cc(=O)n2C [Tipifarnib (Zarnestra)] | 0.122
CN1C2CCC1CC(NC(=O)c1nn(C)c3ccccc13)C2 (stereo unspecified) [LY-278,584 maleate] | 0.18
CCCCC1(C2CCCC2)Cc2cc(OCC(=O)O)c(Cl)c(Cl)c2C1=O (stereo in doubt) [R(+)-Butylindazone] | 0.132
NCCCCN [Putrescine dihydrochloride] | 0.4
O=C(NCCCNc1nc(Nc2cccc(NC(=O)N3CCCC3)c2)ncc1I)c1cccs1 | -0.0321
NCCC(=O)NCCc1c[nH]cn1 [Carcinine dihydrochloride] | -0.0155
O=C1Nc2ccc(I)cc2/C1=C/c1cc(Br)c(O)c(Br)c1 | 0.126
Cc1ccccc1N1CCN(S(=O)(=O)C[C@]23CC[C@H](CC2NC(=O)[C@@H](N)CCS(C)(=O)=O)C3(C)C)CC1 (stereo partly specified) | -0.132
O=C1N=C(O)NC1(c1ccccc1)c1ccccc1 [Phenytoin sodium] | 0.142
COc1cc2c(cc1OC)-c1c/c(=N\c3c(C)cc(C)cc3C)n(C)c(=O)n1CC2 [Trequinsin hydrochloride] | -0.34
Oc1nc(-c2ccc(C(F)(F)F)cc2)nc2c1CSCC2 | -0.0128
Cc1cnc(-c2cnc(NCCNc3ccc(C#N)cn3)nc2-c2ccc(Cl)cc2Cl)[nH]1 | -0.0561
CNCc1ccc(-c2[nH]c3cc(F)cc4c3c2CCNC4=O)cc1 | 0.353
